# Out of some 300,000 compounds screened, about 5,400 (1.8%) were called active. The inconclusive results got no clear call from the source; some entries with a clear call stand among them for comparison. Calls come from the whole dose curve; tested in HEK293 cells. A potency beside an inconclusive call is a rough fit, not a confirmed value.
# Test: qHTS for inhibitors of binding or entry into cells for Marburg Virus
# Conditions: Marburg virus pseudotyped entry inhibition, cell reporter; series mostly up to 37.8 µM
# Potency is the fitted concentration of half-maximal effect.
row,SMILES,Potency
1,Cc1ccc(OCCCCNC(C)c2ccccc2)c(C)c1 (stereo not given),active: 11.2 µM
2,CC(C)(C)c1ccc(CN(Cc2ccco2)c2cnc(S(C)(=O)=O)nc2C(=O)Nc2ccc(F)cc2)cc1,"inconclusive: 14.1 µM [inhibitor, partial curve, poor fit]"
3,O=C(CC(=O)Nc1nc(C23CC4CC(CC(C4)C2)C3)cs1)NCCO,"inconclusive: 6.31 µM [inhibitor, partial curve, poor fit]"
4,COc1ccccc1N=c1oc2c(OC)cccc2cc1C(=O)NCc1ccco1,"inconclusive: 20.6 µM [inhibitor, single point]"
5,CC12CCC(C(=O)NC(c3ccccc3)c3ccccc3)(OC1=O)C2(C)C (stereo not given),inactive
6,Cc1cccc2cc(CN(CCN3CCCC3)C(=O)NC3CCCCC3)c(=O)[nH]c12,inactive
7,Cc1cc(NC(=O)C2CCN(C(=O)c3ccco3)CC2)ccc1Br,inactive
8,Cc1ccc(-c2nc(C#N)c(NCCCn3ccnc3)o2)cc1,"inconclusive: 0.562 µM [activator, full curve, poor fit]"
9,CC(C)(C)c1ccc(C(=O)NCC2CCCN2S(=O)(=O)c2ccccc2)cc1 (stereo not given),"inconclusive: 35.5 µM [inhibitor, single point]"
10,CCC1CCc2sc(C(=O)NCC(c3ccc(OC)cc3)N3CCCC3)cc2C1 (stereo not given),"inconclusive: 10 µM [inhibitor, partial curve, poor fit]"
11,COc1ccc(OC)c(C(O)c2coc3ccc(O)c(CN4CCOCC4)c23)c1 (stereo not given),inactive
12,CCCc1nn(C)c2c1[C@@H](c1cccnc1)C(C#N)=C(N)O2,inactive
13,O=C(N/N=C/c1sc2ccccc2c1O)c1cccc2ccccc12,active: 14.1 µM
14,CCn1cc(C(=O)NCc2ccc(C)cc2)c(=O)c2cc(S(=O)(=O)N(C)C3CCCCC3)ccc21,inactive
15,O=c1[nH]c(=O)n(-c2cccc3ccccc23)c(O)c1/C=N/N1CCCCC1c1cccnc1 (stereo not given),inactive
16,CCc1ccc(-c2cc(C(=O)NCc3ccccn3)c3ccccc3n2)cc1,"inconclusive: 12.6 µM [inhibitor, single point]"
17,Cc1cccc(OCC(O)Cn2c(=N)n(CCN3CCCCC3)c3ccccc32)c1 (stereo not given),active: 0.517 µM
18,N#Cc1nc(-c2cccs2)oc1N1CCN(c2ccccc2)CC1,"inconclusive: 16.4 µM [inhibitor, partial curve, poor fit]"
19,Cc1cccn2c(=O)c(C=O)c(N3CCN(c4ccccc4)CC3)nc12,"inconclusive: 1 µM [inhibitor, single point]"
20,CCCC(=O)Nc1ccc(NC(=O)C23CC4CC(CC(C4)C2)C3)cn1,"inconclusive: 6.31 µM [activator, partial curve, poor fit]"
21,CCOC(=O)Cc1csc(N/N=C/c2ccccc2)n1,"inconclusive: 3.98 µM [inhibitor, full curve, poor fit]"
22,Cc1cc(C)c(S(=O)(=O)Nc2ccncc2)cc1C,"inconclusive: 0.562 µM [inhibitor, full curve, poor fit]"
23,COc1ccc(-c2nc(CS(=O)CC(=O)NC3CCCCCC3)c(C)o2)cc1 (stereo not given),inactive

# Ten of the compounds above, bar-delimited:
row | SMILES | Potency
13 | O=C(N/N=C/c1sc2ccccc2c1O)c1cccc2ccccc12 | active: 14.1 µM
14 | CCn1cc(C(=O)NCc2ccc(C)cc2)c(=O)c2cc(S(=O)(=O)N(C)C3CCCCC3)ccc21 | inactive
15 | O=c1[nH]c(=O)n(-c2cccc3ccccc23)c(O)c1/C=N/N1CCCCC1c1cccnc1 (stereo not given) | inactive
16 | CCc1ccc(-c2cc(C(=O)NCc3ccccn3)c3ccccc3n2)cc1 | inconclusive: 12.6 µM [inhibitor, single point]
17 | Cc1cccc(OCC(O)Cn2c(=N)n(CCN3CCCCC3)c3ccccc32)c1 (stereo not given) | active: 0.517 µM
18 | N#Cc1nc(-c2cccs2)oc1N1CCN(c2ccccc2)CC1 | inconclusive: 16.4 µM [inhibitor, partial curve, poor fit]
19 | Cc1cccn2c(=O)c(C=O)c(N3CCN(c4ccccc4)CC3)nc12 | inconclusive: 1 µM [inhibitor, single point]
20 | CCCC(=O)Nc1ccc(NC(=O)C23CC4CC(CC(C4)C2)C3)cn1 | inconclusive: 6.31 µM [activator, partial curve, poor fit]
21 | CCOC(=O)Cc1csc(N/N=C/c2ccccc2)n1 | inconclusive: 3.98 µM [inhibitor, full curve, poor fit]
22 | Cc1cc(C)c(S(=O)(=O)Nc2ccncc2)cc1C | inconclusive: 0.562 µM [inhibitor, full curve, poor fit]

# (next part)

row,SMILES,Potency
1,Cc1[nH]nc2c1C(c1ccc(-c3ccccc3C#N)o1)C(C#N)=C(N)O2 (stereo not given),inactive
2,CC1=C(C(=O)Nc2ccccc2)C(c2ccncc2)n2nc(SCc3ccccc3F)nc2N1 (stereo not given),inactive
3,CCCc1noc(-c2cccc([N+](=O)[O-])c2)n1,inactive
4,Cc1cccc(-n2c(=S)[nH]c3c(oc4ccccc43)c2=O)c1,inactive
5,COc1ccc(CCNC(=O)c2cc(C(=O)c3cc(C)ccc3O)cn(CCc3ccc(OC)cc3)c2=O)cc1,"inconclusive: 8.91 µM [inhibitor, partial curve]"
6,Clc1ccc(SCc2cn3ccccc3n2)cc1,"inconclusive: 0.891 µM [activator, full curve, poor fit]"
7,Cc1ncc(C23CC4CC(CC(C4)C2)C3)[nH]1,inactive
8,O=C(Nc1ccc(Cc2ccc(NC(=O)C3CC3)cc2)cc1)C1CC1,"inconclusive: 4.11 µM [inhibitor, full curve, poor fit]"
9,O=C(CNc1cccc(S(=O)(=O)N2CCOCC2)c1)Nc1cccc(Br)c1,"inconclusive: 11.2 µM [inhibitor, partial curve, poor fit]"
10,O=C(CSc1nnnn1Cc1ccccc1)NCC(=O)c1ccccc1,inactive
11,CN(C)c1ccc(S(=O)(=O)N(C)C)cc1NC(=O)Cc1cccc2ccccc12,"inconclusive: 12.6 µM [inhibitor, partial curve, poor fit]"
12,Cc1ccc(C)c(OCC(O)CN2C(C)CCCC2C)c1 (stereo not given),"inconclusive: 12.6 µM [inhibitor, partial curve, poor fit]"
13,Cc1ccc(C2Nc3ccccc3C(=O)N2CCN2CCNC2=O)cc1 (stereo not given),"inconclusive: 0.562 µM [activator, full curve, poor fit]"
14,O=C1c2ccccc2C(=O)N1CCCCN(C(=O)c1cccc([N+](=O)[O-])c1)c1ccc(Cl)cc1,"inconclusive: 16.4 µM [inhibitor, partial curve, poor fit]"
15,CCN1/C(=C/c2ccc3ccccc3[n+]2CC)C=Cc2ccccc21,active: 3.55 µM
16,Cc1ccc(-c2nc(CS(=O)(=O)CC(=O)NCCc3ccccc3)c(C)o2)cc1,inactive
17,COc1ccc(C(=O)c2c(N)sc3c2CCN(C(=O)OC(C)(C)C)C3)cc1,"inconclusive: 35.5 µM [inhibitor, single point]"
18,O=C(O)Cc1ccc2c(c1)N(S(=O)(=O)c1cccs1)CC(C(=O)O)O2 (stereo not given),"inconclusive: 15.8 µM [inhibitor, partial curve, poor fit]"
19,COc1ccc(/C(C)=N/N2C(C)CCCC2C)c(OC)c1 (stereo not given),"inconclusive: 14.1 µM [inhibitor, partial curve, poor fit]"
20,Cc1cccc(NC(c2ccccc2C)c2ccc3ccc(C)nc3c2O)n1 (stereo not given),"inconclusive: 35.5 µM [inhibitor, single point]"
21,COCCn1c(=NC(C)=O)sc2cc([N+](=O)[O-])ccc21,inactive
22,COc1cc2c(cc1OC)C(O)C(O)(CO)C(C(=O)O)C2c1cc(OC)c(OC)c(OC)c1 (stereo not given),"inconclusive: 11.2 µM [activator, single point]"
